This is one part of the list. Shown are side measurements of this screen, not its main read-out; they come without a call. Most of these compounds were active or inconclusive in the main read-out, so they are no random draw. Potencies come from curve fits of mixed quality, noted in brackets.

This passage reports cell number change and AC50 results from PubChem BioAssay AID2685 (National Center for Advancing Translational Sciences (NCATS), 2010).

The nature of this assay: qHTS Assay for Lipid Storage Modulators in Drosophila S3 Cells.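 For cell number change: cells counted by Cell Tracker Red CMTPX staining in the red channel.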 The following applies: BODIPY lipid droplet fluorescence, 18-24 h; for cell number change: measured here: cell count max response, cells fed with added oleic acid. The gist of the method:
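Laser-scanning cytometry quantifies lipid droplet accumulation (500–530 nm total intensity; droplet/cell object ratio) in oleic acid-fed (400 uM added) Drosophila S3 cells treated with a concentration series. 20 uM Triacsin C defined 100% inhibition.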
In general terms: In qHTS, concentration-response curves come from the screen itself.

Setting [1] is: measured here: cell number channel AC50, cells fed with added oleic acid.
Where [2] appears, read: measured here: lipid fluorescence (Fed channel) AC50, cells fed with added oleic acid.

What is called AC50 is the concentration giving half of the maximal activity seen. The low end stands for activity at low concentration, the high end for activity only at high concentration. Consider `COc1ccc(N2CC(O)=C(c3nc(-c4ccc(Br)cc4)cs3)C2=N)cc1`, for which the cell number change was 71%. Also, the AC50 under setting [1] was 18.4 µM [rising, single point]. In addition, the AC50 under setting [2] was 29.1 µM [rising, single point].

Turning to `CC(C)(C)Nc1nc(C(N)=O)nc(N2CCOCC2)n1`, the AC50 under setting [1] is 0.82 µM [rising, single point].

As to `O=C1C(=O)N(CCc2c[nH]c3ccccc23)C(c2cccnc2)/C1=C(/O)c1ccccc1` (configuration not stated), the cell number change came to 18.1%.

As to `CC(NC(=O)c1ccco1)C(=O)N1CCCCC1` (configuration not stated), the cell number change was -4.86%. Besides, under setting [2], the AC50 was 0.082 µM [falling, full curve, poor fit].

As to `O=C(NCc1ccco1)[C@@H]1CCCN1C(=O)c1cccs1`, the cell number change is -43.3%. Also, the AC50 under setting [1] is 29.1 µM [falling, single point].

On to `Cc1cc(C)c(Cc2c(C)nc3c(C(=O)NCc4ccco4)cnn3c2C)c(C)c1`, for which, under setting [2], the AC50 is 5.17 µM [falling, partial curve].

As to `O=C(COc1ccc(/C=N/NC(=O)c2ccc(O)cc2)cc1)Nc1ccc([N+](=O)[O-])cc1`, the cell number change is -22.4%. Also, the AC50 under setting [1] is 3.26 µM [falling, full curve, poor fit]. Besides, the AC50 under setting [2] is 5.17 µM [falling, single point].

`COc1ccc(C(CNC(=O)CCC(=O)c2ccc(C)s2)N2CCOCC2)cc1` (configuration not stated): the cell number change is -22.3%. Moreover, the AC50 under setting [1] is 0.206 µM [falling, full curve, poor fit]. The AC50 under setting [2] was 32.6 µM [falling, partial curve, poor fit].

Take `CC(OC(=O)c1cccs1)C(=O)NCc1cccs1` (configuration not stated): the cell number change was 2.05%. In addition, the AC50 under setting [2] was 5.8 µM [falling, single point].

In the case of `COc1ccc(C(=O)N/C(=C\c2cn(C)c3ccccc23)C(=O)N2CCOCC2)cc1OC`, the AC50 under setting [2] was 29.1 µM [falling, single point].

With `CONC(=O)C1CCN(C(=O)OCc2ccccc2)CC1`, the cell number change was -20.8%. The AC50 under setting [2] was 29.1 µM [falling, partial curve, poor fit].

As to `Cc1csc(SCC(=O)N(C)C2CCS(=O)(=O)C2)n1` (configuration not stated), the cell number change was -16.9%.

Take `O=C(O)C(CCCCN1C(=O)C2C3C=CC(C3)C2C1=O)N1C(=O)C2C3C=CC(C3)C2C1=O` (configuration not stated): the cell number change is -5.92%. Further, the AC50 under setting [2] was 20.6 µM [falling, partial curve, poor fit].

Turning to `O=P1(O)C=C(c2ccccc2)NC(c2ccccc2)=C1`, the cell number change was -8.09%. Besides, under setting [1], the AC50 is 6.51 µM [falling, partial curve]. Also, the AC50 under setting [2] was 0.58 µM [falling, single point].

On to `O=C(CN1CCC(NC(=O)c2ccccc2F)CC1)Nc1ccc2c(c1)OCO2`, for which the cell number change is -4.65%.

As for `CC(C)CCNC(=O)C1CCC(CNc2c(N3CCC(C)CC3)c(=O)c2=O)CC1` (configuration not stated), the cell number change was determined as 8.02%.

Consider `COc1ccc(N(CC(=O)Nc2nccs2)S(=O)(=O)c2c(C)[nH]c(=O)[nH]c2=O)cc1`, for which the cell number change came to 40.4%. In addition, the AC50 under setting [1] is 20.6 µM [rising, single point].

As for `CC(=C\c1ccccc1)/C=C1/SC(=O)N(CCCC(=O)Nc2ccc(C(=O)O)cc2)C1=O`, the cell number change was -2.87%. Also, under setting [1], the AC50 was 2.91 µM [falling, single point].

`CNC(=O)/C=C1\NC(C)(C)Cc2ccccc21`: the cell number change is 68.8%. Further, under setting [1], the AC50 is 23.1 µM [rising, single point].

In the case of `S=c1[nH]nc(-c2ccccc2Cl)n1Cc1ccccc1`, the cell number change was -1.23%.

For `CCN1CCN(C(=O)CN(C)S(=O)(=O)c2ccc3ccccc3c2)CC1`, the cell number change was determined as 8.87%.

On to `CCn1c(SCC(=O)Nc2cccc(OC)c2)nc2c(c1=O)SCC2`, for which the cell number change came to 33%. In addition, the AC50 under setting [1] is 9.2 µM [rising, partial curve]. For the same compound, under setting [2], the AC50 was 14.6 µM [rising, partial curve].

Take `CCOC(=O)C1CCCN(C(=O)Cc2c(F)cccc2Cl)C1` (configuration not stated): the cell number change was found to be 3.31%. The AC50 under setting [2] is 6.51 µM [falling, single point].

As for `COc1ccc(S(=O)(=O)N2CCC(C(=O)N[C@@H](C)C(=O)NC3CCCC3)CC2)cc1`, the cell number change was 2.66%. Moreover, the AC50 under setting [2] is 29.1 µM [rising, single point].

Take `c1ccc(-n2nnnc2SCc2ccccn2)cc1`: the cell number change is 43.9%. Moreover, the AC50 under setting [1] is 29.1 µM [rising, single point].

`CCOc1cc(C#N)c(NC(=O)c2cccnc2Cl)cc1OCC`: the cell number change stood at 27%. The half-maximal activity concentration (AC50) under setting [1] is 1.84 µM [rising, full curve, poor fit].

For `Cc1nnc(SCc2cn3ccsc3n2)n(N)c1=O`, the cell number change is 37.7%. Under setting [1], the AC50 was 5.8 µM [rising, partial curve, poor fit]. In addition, under setting [2], the AC50 was 0.411 µM [falling, single point].

On to `O=C(NNC(=O)C1C2CCC(C2)C1C(=O)O)c1cccc(Cl)c1` (configuration not stated), for which the cell number change was 28.5%. For the same compound, the AC50 under setting [1] is 6.51 µM [falling, single point].

For the compound `COc1ccccc1C(=O)Nc1ccnn1C1CCN(Cc2ccn[nH]2)CC1`, the cell number change was -14.2%. Besides, the AC50 under setting [2] is 25.9 µM [falling, single point].

On to `COc1ccc(CNC(=O)CN(C)S(=O)(=O)c2ccc(Br)s2)cc1`, for which the AC50 under setting [2] was 29.1 µM [rising, single point].

As to `COc1ccc(CCNC(=O)CC(=O)N/N=C/c2ccc(C(=O)O)cc2)cc1OC`, the cell number change was found to be 6.74%. Also, under setting [2], the AC50 is 0.206 µM [falling, full curve, poor fit].

For `Cc1cc(-c2cc(-c3ccc(Cl)cc3)on2)nc(NCC2CC2)n1`, the cell number change was determined as 15.8%. Also, under setting [2], the AC50 was 2.06 µM [rising, partial curve].

Turning to `N#Cc1c(-c2ccc(Br)cc2)nc2n(c1=O)CCCS2`, the AC50 is, setting by setting: under setting [1], 0.82 µM [rising, full curve]; under setting [2], 0.82 µM [rising, full curve].

For `Cc1cccc(OCC(=O)NNC(=O)C2CCN(c3ncnc4sc(C)c(C)c34)CC2)c1`, the AC50 is, setting by setting: under setting [1], 3.66 µM [falling, single point]; under setting [2], 4.11 µM [falling, single point].

As for `Fc1ccc(Br)cc1C1C=C(c2ccc(Br)cc2)Nc2ncnn21` (configuration not stated), the AC50 reads like this: under setting [1], 0.092 µM [rising, full curve, poor fit]; under setting [2], 14.6 µM [rising, partial curve, poor fit].

As for `COc1ccc(Cl)cc1N(C(=O)Nc1cccc(Cl)c1)C1=NCC(C)S1` (configuration not stated), the cell number change was found to be 2.9%. Further, the AC50 under setting [2] was 0.731 µM [falling, single point].

On to `c1ccc(-c2noc(-c3cccnc3)n2)nc1`, for which the cell number change is 92.7%. Also, the AC50 under setting [1] is 20.6 µM [rising, partial curve]. The AC50 under setting [2] is 14.6 µM [rising, partial curve].

As for `NS(=O)(=O)c1ccc(NC(CNS(=O)(=O)c2ccccc2)c2ccccc2)cc1` (configuration not stated), the concentration at half-maximal activity (AC50) under setting [2] is 29.1 µM [rising, single point].

`CN(N)C(=S)NCc1ccccc1`: the cell number change is -40%. Moreover, the AC50 under setting [1] was 0.00461 µM [falling, full curve, poor fit]. Moreover, the AC50 under setting [2] is 29.1 µM [falling, single point].

On to `Cc1ccc([C@@H]2[C@@H]3C(=O)N(C)C(=O)[C@@H]3[C@]3(C)C(=O)N(CC4CC4)CC(=O)N23)o1`, for which the cell number change stood at 24%. Further, the AC50 under setting [2] was 0.58 µM [rising, single point].

As for `O=c1[nH]nc(Cc2ccccc2)c2ccccc12`, the cell number change is 44.7%. Moreover, the AC50 under setting [1] was 2.31 µM [rising, partial curve]. Further, under setting [2], the AC50 is 0.731 µM [rising, partial curve, poor fit].

On to `CCC(=O)N1c2ccc(S(=O)(=O)N3CCCC3)cc2CC1C` (configuration not stated), for which the cell number change was determined as 2.83%.

Take `Cc1ccc(S(=O)(=O)NN)c(C)c1N1CCCC1=O`: the cell number change was determined as 17.2%.

With `O=C(Cc1ccsc1)NNC(=O)c1cccc(Cl)c1`, the cell number change was -2.16%.

`CC(C)c1ccc(N(CC(=O)N2CCN(Cc3ccccc3)CC2)S(C)(=O)=O)cc1`: the cell number change is -9.12%. Under setting [1], the half-maximal activity concentration (AC50) was 0.13 µM [rising, partial curve, poor fit].

Regarding `COc1ccc(NC(=O)c2cccc(S(=O)(=O)N3CCOCC3)c2)cn1`, the cell number change was 48.3%.

As for `CC[C@H](C)[C@@H](C(=O)NCCCCCCCCCCC(=O)N1CCN(C(=O)OC(C)(C)C)CC1)n1cc(CCCCN=C(NC(=O)OC(C)(C)C)NC(=O)OC(C)(C)C)nn1`, the AC50 by setting is: under setting [1], 6.51 µM [falling, single point]; under setting [2], 29.1 µM [falling, single point].

In the case of `COc1cc(/C=C/C(=O)OCC(=O)Nc2ccc3c(c2)OCCO3)ccc1OCC#N`, the cell number change is -18%. Also, under setting [2], the AC50 is 0.651 µM [rising, single point].

As to `O=C(NC1CCCCC1)c1cc(C(=O)c2ccccc2Br)c[nH]1`, the cell number change came to 14.7%. The AC50 under setting [1] is 0.103 µM [rising, full curve, poor fit]. Further, the AC50 under setting [2] is 0.103 µM [rising, full curve, poor fit].

Turning to `O=C(O)c1cc(-c2ccc3c(c2)OCCO3)n[nH]1`, the cell number change is 18%. For the same compound, under setting [2], the AC50 was 2.06 µM [rising, partial curve].

`CC1CC(=O)N(CC(=O)NCc2ccc(F)cc2)c2ccccc2S1(=O)=O` (configuration not stated): the cell number change was found to be 6.49%. Also, the AC50 under setting [2] is 14.6 µM [falling, partial curve, poor fit].

`O=C(COc1ccc2ccc(=O)oc2c1)N1CC[C@@]2(O)CCCC[C@H]2C1`: the cell number change came out at 11%. The AC50 under setting [2] is 29.1 µM [rising, single point].

For `Cc1nc(C)n(CC(O)COc2ccc(C(=O)c3ccccc3)cc2)n1` (configuration not stated), the concentration at half-maximal activity (AC50) by setting is: under setting [1], 6.51 µM [rising, single point]; under setting [2], 6.51 µM [rising, single point].

As to `COC(=O)c1ccc(/C=C/c2nc3ccccc3c(=O)[nH]2)cc1`, the cell number change came out at 16.5%.

Take `COc1ccc(OC)c(CCNC(=O)CC2Oc3ccccc3NC2=O)c1` (configuration not stated): the cell number change was -13.7%.

Consider `COc1ccccc1CNC(=O)C1CSC2(C)CCC(=O)N12` (configuration not stated), for which the cell number change was determined as 13.2%. Besides, the AC50 under setting [2] is 16.4 µM [rising, partial curve].

Turning to `CC1(C)CC(=O)C(C=NCCN2CCN(C(=S)Nc3ccc(F)cc3)CC2)=C(O)C1`, the cell number change was -4.46%. The AC50 under setting [1] is 0.103 µM [falling, full curve, poor fit].

In the case of `Cc1ccc(N2C(=O)Nc3ccccc3S2(=O)=O)cc1Cl`, the cell number change amounted to 21.1%. Besides, under setting [2], the AC50 is 0.58 µM [rising, single point].

With `CCN1c2ccccc2NC2C1C(C(C)=O)C(=O)N2c1ccc(Cl)cc1` (configuration not stated), the cell number change was -60.1%. Also, the AC50 under setting [1] is 29.1 µM [falling, single point]. For the same compound, the AC50 under setting [2] is 1.46 µM [falling, full curve].
